Results as given in paper PMC6016461.
These are yes or no findings as the source states them, for the method shown. In cells and extracts the contact can be indirect. Tags and fused reporters may be left off the sequences shown.

Tests used:
Assay in all cases: pull-down; purified Strep-tagged NafY, NifY or NifW immobilised on Strep-Tactin XT resin; A. vinelandii cell-free extract (MoFe protein without Strep-tag) passed over; anoxic buffer C (50 mM Tris-HCl pH 7.9, 2 mM Na2S2O4, 350 mM NaCl), 10 column volumes wash; eluted with 50 mM biotin; SDS-PAGE; some samples further run on Superose 12 to remove excess bait; only the target purified
[1] = molecular target: T1, Strep-tagged NifW (A. vinelandii) (UniProt P14888)
T1 sequence: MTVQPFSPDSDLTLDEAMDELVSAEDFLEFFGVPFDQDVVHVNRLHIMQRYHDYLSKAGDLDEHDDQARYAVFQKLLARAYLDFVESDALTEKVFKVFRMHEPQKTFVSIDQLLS

[2] = molecular target: T2, Strep-tagged NafY (A. vinelandii) (UniProt Q9F5X9)
T2 sequence: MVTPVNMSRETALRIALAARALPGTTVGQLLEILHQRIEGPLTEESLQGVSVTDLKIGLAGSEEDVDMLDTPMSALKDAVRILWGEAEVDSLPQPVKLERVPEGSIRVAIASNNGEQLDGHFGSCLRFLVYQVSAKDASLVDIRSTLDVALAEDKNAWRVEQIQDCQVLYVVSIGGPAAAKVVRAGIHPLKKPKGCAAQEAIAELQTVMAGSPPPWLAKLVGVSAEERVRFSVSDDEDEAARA

[3] = molecular target: T3, Strep-tagged NifY (A. vinelandii) (UniProt P14886)
T3 sequence: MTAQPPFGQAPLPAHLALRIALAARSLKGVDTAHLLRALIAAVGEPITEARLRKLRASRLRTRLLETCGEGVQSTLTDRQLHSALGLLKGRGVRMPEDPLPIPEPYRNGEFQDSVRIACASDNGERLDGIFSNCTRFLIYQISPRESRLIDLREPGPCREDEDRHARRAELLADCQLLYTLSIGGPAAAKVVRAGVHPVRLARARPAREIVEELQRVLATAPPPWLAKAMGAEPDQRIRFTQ

B1: NifZ (protein, UniProt P14889 1-159)
chain: MLPQFEYGDEVRLIRNVRNDGTYPGMNTGALLMRRGAVGCVYDVGTYLQDQLIYRVHFLDEGRTIGCREEELILASAPWIPNLFEFRDDVIATRSLAVRGQVLVKRGQLGSIMKVLRDEPELGIQYHVHFGDGLVLQVPEQSLAMADSTAAIEEVLDGI
binding [1]: no binding

B2: NifY (protein, UniProt P14886 1-242)
chain: MTAQPPFGQAPLPAHLALRIALAARSLKGVDTAHLLRALIAAVGEPITEARLRKLRASRLRTRLLETCGEGVQSTLTDRQLHSALGLLKGRGVRMPEDPLPIPEPYRNGEFQDSVRIACASDNGERLDGIFSNCTRFLIYQISPRESRLIDLREPGPCREDEDRHARRAELLADCQLLYTLSIGGPAAAKVVRAGVHPVRLARARPAREIVEELQRVLATAPPPWLAKAMGAEPDQRIRFTQ
binding [2]: no binding

B3: NafY (protein, UniProt Q9F5X9 1-243)
chain: MVTPVNMSRETALRIALAARALPGTTVGQLLEILHQRIEGPLTEESLQGVSVTDLKIGLAGSEEDVDMLDTPMSALKDAVRILWGEAEVDSLPQPVKLERVPEGSIRVAIASNNGEQLDGHFGSCLRFLVYQVSAKDASLVDIRSTLDVALAEDKNAWRVEQIQDCQVLYVVSIGGPAAAKVVRAGIHPLKKPKGCAAQEAIAELQTVMAGSPPPWLAKLVGVSAEERVRFSVSDDEDEAARA
binding [3]: no binding
